Laboratory results as given in patent publication US5068222A (Imperial Chemical Industries PLC, priority 1987, dated 1991).

Assay: general procedure: Boc solid-phase peptide synthesis; methylbenzhydrylamine resin
Conditions: whole synthesis, scale 0.5 mmole

## Ac-GNHWAVGHL-NH2
  crude mass: 0.39 g
  isolated mass: 0.2 g
